Data from the supplement of paper PMC7125110.
± gives the standard error. Many of these values have a large error.

B1: glmS ribozyme (parent)
chain: AUAAAAGCGCCAGAACUACAGAAAUGUAGUUGACGAGGAGGAGGUUUAUCGAAUUUUCGGCGGAUGCCUCCAAA

Variants of: B1
Assay: self-cleavage kobs at 10000 uM GlcN6P; higher = faster cleavage; RNA array
Settings: with glucosamine-6-phosphate
Summary of the method: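 E. coli RNA polymerase transcribed barcoded ribozyme variants in situ on sequenced MiSeq chips, which were tracked via a hybridised Cy3 probe at 37 °C. Tiles were imaged over ~14 h after glucosamine-6-phosphate (40 μM to 10 mM) in HEPES/KCl/Mg(OAc)2 buffer was flowed in. Normalised per-tile medians were fit to one- or two-exponential decays for kobs, and kcat and KM came from weighted Michaelis–Menten fits.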

Variant	self-cleavage kobs at 10000 uM GlcN6P [s⁻¹]
AUAAAAGGGCCAGAACUACAGAAAUGUAGUUGACGAGGAGGAGGUUUAUAGAAUUUUCGGAGGAUGCAUCCAAA [C8G C50A C61A C68A]	0.00285 ± 0.0024
AUAAAAGGGCCAGAACUACAGAAAUGUAGUUGACGAGGAGGAGGUUAAUCGAAUUUUCGGCCGAUGCCUCCAAA [C8G U47A G62C]	1.52e-05 ± 1.5e-05
AUAAAAGUGCCAGAACUACAGAAAUGUAGUUGACGAGGAGGAGGUUUAUCGAAUUUUUGGCGGAUGCAUCCAAA [C8U C58U C68A]	2.52e-05 ± 2.5e-05
AUAAAAGCACCAGAACUACAGAAAUGUAGUUGACGAGGAGGAGGUUUAUCGAAAUUUCGGCGGAUGCCUCCAAA [G9A U54A]	2.39e-05 ± 1.5e-05
AUAAAAGCGACAGAACUACAGAAAUGUAUUUGACGAGGAGGAGGUUUAUCGAAUUUUCGGCGGAUGCCUGCAAA [C10A G29U C70G]	2.33e-05 ± 2e-05
AUAAAAGCGGCAGAACUACAGAAAUGUAGUUGACGAGGAGGAGGUUUAUCGAAUUUUCGGCGGAUGCGUCCAAA [C10G C68G]	0.00155 ± 0.0012
AUAAAAGCGUCGGAACUACAGAAAUGUAGUUGACGAGGAGGAGGUUUAUCGAAUUUUCGGCGGAUGCCUCCAAA [C10U A12G]	1.81e-05 ± 1e-05
AUAAAAGCGUCAGUACUACAGAAAUGUAGUUAACGAGGAGGAGGUUUAUCGAAUUUUCGGCGGAUGCCUCCAAA [C10U A14U G32A]	2.38e-05 ± 1.9e-05
AUAAAAGCGUCAGAACUACAGAAAUGUAGUUGACGAGGUGGAGGUUUAUCGAAUUUUCGGCGGAUGCCUCCAAA [C10U A39U]	< 1e-05
AUAAAAGCGUCAGAACUACAGAAAUGUAGUUGACGAGGAGGAGGUUUAUCGAACUGUCGGCGGAUGCCUCCAAA [C10U U54C U56G]	2.07e-05 ± 1.5e-05
AUAAAAGCGCAGGAACUACAGAAAUGUAGCUGACGAGGAGGAGGUUUAUCGAAUUUUCGGCGGAUGCCUCCAAA [C11A A12G U30C]	3.24e-05 ± 1.8e-05
AUAAAAGCGCAAGAACUACAGAAAUGUAGUUGACGAGGAGGAUGUUUAUCGAAUUUUCGGCGGAUGCUUCCAAA [C11A G43U C68U]	3.07e-05 ± 2.5e-05
AUAAAAGCGCAAGAACUACAGAAAUGUAGUUGACGAGGAGGAGGUUUAUCGAAUUUUCCGCGGAUGCCUCCAAA [C11A G59C]	2.52e-05 ± 1.4e-05
AUAAAAGCGCAAGAACUACAGAAAUGUAGUCGACGAGGAGGAGGUUUAUCGAAUUUUCGGCGGAUGCCUCUAAA [C11A U31C C71U]	2.5e-05 ± 1.5e-05
AUAAAAGCGCGUGAACUACAGAAAUGUAGUUGGCGGGGGGGAGGUUUAUGGAAUUUUCGGCGGAUGGCUCCAAA [C11G A12U A33G A36G A39G C50G C67G]	2.1e-05 ± 1.7e-05
AUAAAAGCGCGAGAACUACAGAAAUGUAGUUGACGAGGAGGAGGUUUAUCGAAUUUUCGGCGGAUGCCUUCAAA [C11G C70U]	1.45e-05 ± 1.4e-05
AUAAAAGCGCUUGAACUACAGAAAUGUAGUUGACGAGGAGGAGGUUUAUCGAAUUUACGGCGGAUGCCUCCAAA [C11U A12U U57A]	3.21e-05 ± 1.7e-05
AUAAAAGCGCUAGAACUACAGAAAUGUAGUUGACGAGGGGGAGGUUUAUCGUAUUUUCGGCGGAUGCCUCCAAA [C11U A39G A52U]	2.86e-05 ± 1.7e-05
AUAAAAGCGCUAGAACUACAGAAAUGUAGUUGACGAGGAGGAGGUUUAUGGAAUUUUCGGCGGAUGCCUCCAAA [C11U C50G]	0.000145 ± 0.00011

A different layout for part of the listing above:
AUAAAAGCGUCGGAACUACAGAAAUGUAGUUGACGAGGAGGAGGUUUAUCGAAUUUUCGGCGGAUGCCUCCAAA [C10U A12G]
  self-cleavage kobs at 10000 uM GlcN6P [s⁻¹]: 1.81e-05 ± 1e-05
AUAAAAGCGCUUGAACUACAGAAAUGUAGUUGACGAGGAGGAGGUUUAUCGAAUUUACGGCGGAUGCCUCCAAA [C11U A12U U57A]
  self-cleavage kobs at 10000 uM GlcN6P [s⁻¹]: 3.21e-05 ± 1.7e-05

(further entries)

Variant	self-cleavage kobs at 10000 uM GlcN6P [s⁻¹]
AUAAAAGCGCUAGAACUACAGAAAUGUAGUUGACGAGGAGGAGGUUUAUCGAAUUUUCGGCGGAUCCCUCCAAA [C11U G66C]	1.94e-05 ± 1.6e-05
AUAAAAGCGCCGGAUCUACAGAAAUGUAGUUGACGAGGAGGAGGUUUAUCGAACUUUCGGCGGAUGGCUCCAAA [A12G A15U U54C C67G]	3.06e-05 ± 1.7e-05
AUAAAAGCGCCGGAACUACAGAAAUGUAGUUGACGAGGUGGAGGUUUAGCGAAUGUUCGGCGGAUGCCUCCAAA [A12G A39U U49G U55G]	2.59e-05 ± 1.8e-05
AUAAAAGCGCCGGAACUACAGAAAUGUAGUUGACGAGGAGGAGGUUUAUCGAUUUUUUGGCGGAUGCCUCCAAA [A12G A53U C58U]	3.56e-05 ± 1.9e-05
AUAAAAGCGCCGGAACUACAGAAAUGUAUUCGACGAGGAGGAGGUUAAUCGAAUUUUCGGCGGAUGCCUCCAAA [A12G G29U U31C U47A]	3.6e-05 ± 2.7e-05
AUAAAAGCGCCGGAACUACAGAAAUGUAGUUGACGAAGAGGAGGGUUAUCGAAUUUUCGGCGGAUGCCUCCAAA [A12G G37A U45G]	1.57e-05 ± 1.1e-05
AUAAAAGCGCCGGAACUACAGAAAUGUAGUUGACGAGGAGGAGGUUUAUCGAAUUUGCGGCGGAUGCCUCCAAA [A12G U57G]	2.06e-05 ± 1.8e-05
AUAAAAGCGCCUGAACUACAGAAAUGUAGUUGACGAGGAGGAGGUUUAUCGAAUUUUCGGUGGAUGCCUCCAAA [A12U C61U]	2.19e-05 ± 1.3e-05
AUAAAAGCGCCUGAACUACAGAAAUGUAGUUGACGAGGAGGAGGUUUAUCGAAUUUUCGGCGGAUGCCGACAAA [A12U U69G C70A]	2.2e-05 ± 1.4e-05
AUAAAAGCGCCAAAACUACAGAAAUGUAGUUGACGAGGAGGAGGUUUAUCGAAUUUUUGGCGGAUGGCUCCAAA [G13A C58U C67G]	2.06e-05 ± 1.7e-05
AUAAAAGCGCCAAAACUACAGAAAUGUAGUUGACGAGGAGGAGGUUUAGCGAAUUUUCGGCGGAUGCCUCCAAA [G13A U49G]	2.27e-05 ± 1.4e-05
AUAAAAGCGCCACAACUACAGAAAUGUAGUUGACGAGGAUGAGGUUUAUCGAAUUUUCGGCGGAUGCCUCCAAA [G13C G40U]	2.8e-05 ± 1.5e-05
AUAAAAGCGCCACAACUACAGAAAUGUAGUUGACGAGGAGGAGGUGUAUCGAAUUUUCGGCGGAUGCCUCCAAA [G13C U46G]	1.37e-05 ± 1.2e-05
AUAAAAGCGCCACAACUACAGAAAUGUAGUUGACGAGGAGGAGGUUUAUCGAAUUUUCGGCGGAUGCCGCCAAA [G13C U69G]	6.85e-05 ± 3.8e-05
AUAAAAGCGCCAUAGCUACAGAAAUGUAGUUGACGAGGAGGAGGUUUAUCGAAUUUUCGGCGGAUGCCUACAAA [G13U A15G C70A]	1.76e-05 ± 1e-05
AUAAAAGCGCCAUAACUACAGAAAUGUAGUUGACGAGGAGCAGGUUUAGCGAAUUUUCGGCGGAUGCCUGCAAA [G13U G41C U49G C70G]	2.66e-05 ± 1.5e-05
AUAAAAGCGCCAUAACUACAGAAAUGUAGUGGACGAGGAGGAGGUUUAUCGAAUUCUCGGCGGAUGCCUCCAAA [G13U U31G U56C]	3.28e-05 ± 2.1e-05
AUAAAAGCGCCAUAACUACAGAAAUGUAGUUGACGAGGAGGAGGUUUAUCGAAUUUACGGCGGAUGCCUCCAAA [G13U U57A]	1.99e-05 ± 1.1e-05
